PubChem BioAssay AID504804 | Drosophila RNAi Screening Center – 2011

- Assay: 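dsRNAs that improve Kc cell survival under doxorubicin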 (primary screen)
- Cell system: Drosophila Kc cells
- Knock-down reagent: long dsRNA against Drosophila genes, 0.5 µg dsRNA per well
- Timing: 96 h (48 h knock-down, then 48 h drug)
- Conditions: doxorubicin 5 µg/ml for 48 h, added 48 h after dsRNA
- Measured: 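Viability measured as cellular ATP by luminescence after 48 h knock-down then 48 h doxorubicin at 5 µg/ml; unnormalised plate counts for each replicate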
- Reading the numbers: raw ATP luminescence: higher = more viable cells, protection from doxorubicin
- Active means: 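z-score of 2 or more over plate mean in both duplicates, retained only when retests and separate dsRNAs confirm the protection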
The deposit covers about 19,000 reagents; below is a random part of those with a known target gene and a result. Of all reagents, 47 (0.25%) were called active. 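Signals are raw, not normalised; exact z-scores behind calls not deposited; actives needed confirmation, so some wells reaching 2 SD are inactive.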 A number with no mark means an inactive call. Names joined by + are all predicted targets of the reagent.

The first 7 records as a preview:
no.	gene	PubChem SID	raw ATP luminescence, replicate 1	raw ATP luminescence, replicate 2
1	zpg (zero population growth)	SID104189494	76523	75173
2	Ugt36A1 + CG15418	SID104180224	21040	34973
3	Atx-1 (Ataxin 1)	SID104198157	37340	43520
4	Cka (Connector of kinase to AP-1)	SID104183268	42520	86530
5	Lim3	SID104182267	57337	49400
6	Lim3	SID104183155	46123	44727
7	Afti (Aftiphilin)	SID104196232	54307	24967

The listing, repeating the preview:
no.	gene	PubChem SID	raw ATP luminescence, replicate 1	raw ATP luminescence, replicate 2
1	zpg (zero population growth)	SID104189494	76523	75173
2	Ugt36A1 + CG15418	SID104180224	21040	34973
3	Atx-1 (Ataxin 1)	SID104198157	37340	43520
4	Cka (Connector of kinase to AP-1)	SID104183268	42520	86530
5	Lim3	SID104182267	57337	49400
6	Lim3	SID104183155	46123	44727
7	Afti (Aftiphilin)	SID104196232	54307	24967
8	CG8907	SID104196245	62030	48740
9	CG42342	SID104192957	1.81e5	1.73e5
10	CG42342	SID104194170	27670	26543
11	CG42342	SID104194802	1.07e5	84180
12	CG42342	SID104194803	1.01e5	77790
13	CG42342	SID104194804	92720	51370
14	CG15611	SID104186355	54570	64550
15	rtet (tetracycline resistance)	SID104193952	38457	40617
16	Osbp (Oxysterol binding protein)	SID104196571	36903	46190
17	bel (belle)	SID104196347	65210	71647
18	Ir48a (Ionotropic receptor 48a)	SID104185093	71313	1.03e5
19	Zasp66 (Z band alternatively spliced PDZ-motif protein 66)	SID104188724	1.65e5	1.84e5
20	Zasp66 (Z band alternatively spliced PDZ-motif protein 66)	SID104190423	30050	33093
21	Zasp66 (Z band alternatively spliced PDZ-motif protein 66)	SID104190424	88190	84873
22	CG13720	SID104188121	70217	79887
23	inaF-A	SID104199452	3.89e5	3.11e5
24	CG14767	SID104186292	52257	49553
25	CG7497	SID104190649	35903	30053
26	CG14042 + SP555	SID104182159	22693	23937
27	CG14042 + SP555	SID104183220	24003	30643
28	CHES-1-like (Checkpoint suppressor 1-like)	SID104198239	56310	69060
29	Polr2K (RNA polymerase II, I and III subunit K)	SID104185327	91833	90503
30	CG11449	SID104191454	64997	56227
31	kl-2 (male fertility factor kl2)	SID104200928	2.91e5	2.63e5
32	Gmppb (GDP-mannose pyrophosphorylase B)	SID104191961	48617	35723
33	uno (univalents only)	SID104187036	35787	67257
34	DopEcR (Dopamine/Ecdysteroid receptor)	SID104188321	40517	33427
35	CG5402	SID104195584	37470	55750
36	Cyp4e1 (Cytochrome P450 4e1)	SID104187162	37240	77033
37	Efhc1.1 (EF-hand domain containing 1.1)	SID104199927	3.55e5	3.33e5
38	CG8008	SID104186845	66947	56523
39	Pop5 (POP5 ribonuclease P/MRP subunit)	SID104189866	33907	24977
40	BomBc3 (Bomanin Bicipital 3)	SID104195665	63510	83600
41	Dbp45A (DEAD box protein 45A)	SID104187187	60743	49433
42	CG8329	SID104190770	36513	33180
43	CG1441	SID104186240	80660	52470
44	Blos2	SID104189939	68770	78137
45	CG6675	SID104183527	43833	49287
46	CG3502 + CG9863	SID104184370	43573	48740
47	Spn38F (Serpin 38F)	SID104183408	57747	48233
48	CG15130	SID104182222	63780	58653
49	CG5555	SID104195626	66027	55470
50	Ude (Uracil-DNA degrading factor)	SID104195116	43150	37783
51	CG6565	SID104182762	1.11e5	56283
52	ATP8A (ATPase 8A)	SID104185213	70420	89930
53	ATP8A (ATPase 8A)	SID104186435	57147	57597
54	CG12377 (retired record)	SID104191463	55640	55507
55	CG12377 (retired record)	SID104191464	60680	64970
56	jagn (jagunal)	SID104191944	66710	31133
57	CG32625	SID104198786	2.90e5	2.79e5
